Experimental data as given in PMC10483240.
These are yes or no findings as the source states them, for the method shown. In cells and extracts the contact can be indirect. Some entries that bind do so weakly or less than the wild type.

Amino acid sequences for entries named in this document (tags omitted).
UniProt P14873: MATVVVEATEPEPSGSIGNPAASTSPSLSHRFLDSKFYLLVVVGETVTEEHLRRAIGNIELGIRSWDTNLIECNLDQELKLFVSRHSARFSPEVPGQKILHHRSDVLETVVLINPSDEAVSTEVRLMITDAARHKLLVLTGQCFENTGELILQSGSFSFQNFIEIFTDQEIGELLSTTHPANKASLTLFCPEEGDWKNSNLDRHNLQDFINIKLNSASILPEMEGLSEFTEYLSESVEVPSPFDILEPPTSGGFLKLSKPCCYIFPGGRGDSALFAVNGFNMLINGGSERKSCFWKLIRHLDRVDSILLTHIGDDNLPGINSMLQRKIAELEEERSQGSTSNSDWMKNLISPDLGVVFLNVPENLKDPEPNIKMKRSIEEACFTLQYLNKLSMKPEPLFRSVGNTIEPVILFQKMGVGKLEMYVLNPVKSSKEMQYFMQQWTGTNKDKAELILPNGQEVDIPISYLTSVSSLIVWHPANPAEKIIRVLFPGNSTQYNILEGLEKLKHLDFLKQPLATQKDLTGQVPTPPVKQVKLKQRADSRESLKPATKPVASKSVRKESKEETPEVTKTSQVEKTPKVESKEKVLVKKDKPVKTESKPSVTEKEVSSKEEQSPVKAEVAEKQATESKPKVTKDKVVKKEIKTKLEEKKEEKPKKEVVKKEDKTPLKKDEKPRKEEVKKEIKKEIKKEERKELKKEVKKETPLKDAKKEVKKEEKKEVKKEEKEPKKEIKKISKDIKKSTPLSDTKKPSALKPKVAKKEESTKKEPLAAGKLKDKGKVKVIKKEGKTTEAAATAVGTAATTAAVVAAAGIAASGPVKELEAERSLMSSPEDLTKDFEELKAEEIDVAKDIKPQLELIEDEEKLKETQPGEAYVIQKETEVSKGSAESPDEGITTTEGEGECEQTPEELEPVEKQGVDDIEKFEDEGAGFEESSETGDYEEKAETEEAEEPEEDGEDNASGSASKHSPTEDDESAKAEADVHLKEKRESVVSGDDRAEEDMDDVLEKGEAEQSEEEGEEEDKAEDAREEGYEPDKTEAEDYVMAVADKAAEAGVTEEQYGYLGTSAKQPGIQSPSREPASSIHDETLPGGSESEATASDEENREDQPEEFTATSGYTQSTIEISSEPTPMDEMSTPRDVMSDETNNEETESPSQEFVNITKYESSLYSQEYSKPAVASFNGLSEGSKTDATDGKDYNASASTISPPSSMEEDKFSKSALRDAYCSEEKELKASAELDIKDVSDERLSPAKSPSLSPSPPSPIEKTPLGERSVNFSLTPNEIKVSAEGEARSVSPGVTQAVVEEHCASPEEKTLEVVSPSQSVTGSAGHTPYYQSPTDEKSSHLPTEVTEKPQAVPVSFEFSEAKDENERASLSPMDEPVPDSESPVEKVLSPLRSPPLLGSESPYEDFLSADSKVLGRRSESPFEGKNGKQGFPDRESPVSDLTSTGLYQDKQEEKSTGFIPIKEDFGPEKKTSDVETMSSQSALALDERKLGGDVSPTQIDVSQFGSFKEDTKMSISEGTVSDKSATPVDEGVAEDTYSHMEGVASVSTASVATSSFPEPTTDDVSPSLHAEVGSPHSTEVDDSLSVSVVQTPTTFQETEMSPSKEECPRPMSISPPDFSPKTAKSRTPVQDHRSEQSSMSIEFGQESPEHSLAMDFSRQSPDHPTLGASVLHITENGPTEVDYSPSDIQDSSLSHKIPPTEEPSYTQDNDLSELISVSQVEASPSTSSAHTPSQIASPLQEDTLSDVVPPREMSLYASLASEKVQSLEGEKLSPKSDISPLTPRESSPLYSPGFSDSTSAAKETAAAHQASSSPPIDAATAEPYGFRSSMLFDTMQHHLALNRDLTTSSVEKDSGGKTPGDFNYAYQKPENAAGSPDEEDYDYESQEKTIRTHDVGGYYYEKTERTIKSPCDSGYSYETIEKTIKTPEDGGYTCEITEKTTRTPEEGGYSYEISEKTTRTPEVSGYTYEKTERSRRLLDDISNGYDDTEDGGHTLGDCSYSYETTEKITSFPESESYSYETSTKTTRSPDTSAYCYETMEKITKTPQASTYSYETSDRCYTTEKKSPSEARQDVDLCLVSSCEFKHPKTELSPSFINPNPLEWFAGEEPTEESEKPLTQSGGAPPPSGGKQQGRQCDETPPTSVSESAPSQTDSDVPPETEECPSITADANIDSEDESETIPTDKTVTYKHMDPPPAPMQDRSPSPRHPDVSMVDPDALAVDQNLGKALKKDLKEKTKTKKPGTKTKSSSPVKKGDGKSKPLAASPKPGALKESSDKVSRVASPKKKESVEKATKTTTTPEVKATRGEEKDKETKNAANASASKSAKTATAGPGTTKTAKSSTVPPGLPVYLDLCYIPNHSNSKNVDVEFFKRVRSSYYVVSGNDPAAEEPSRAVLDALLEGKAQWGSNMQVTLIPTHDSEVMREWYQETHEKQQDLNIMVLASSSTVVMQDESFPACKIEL

Columns and labels:
Test in all cases: co-IP; antibody against the partner (anti-STX7, anti-LYZL4, anti-MAP1B, anti-Cathepsin Z, anti-AP1M1, anti-AP2B1, anti-AP3D1; rabbit or mouse control) on protein G beads; mouse testis homogenate in 125 mM KCl, 10 mM EDTA, 20 mM HEPES pH 7.2, supernatant with 1% NP-40 alternative; Western blot for inceptor
[1] = target: T1, syntaxin 7 (STX7) (mouse (endogenous in testis)) (UniProt O70439)
T1 sequence: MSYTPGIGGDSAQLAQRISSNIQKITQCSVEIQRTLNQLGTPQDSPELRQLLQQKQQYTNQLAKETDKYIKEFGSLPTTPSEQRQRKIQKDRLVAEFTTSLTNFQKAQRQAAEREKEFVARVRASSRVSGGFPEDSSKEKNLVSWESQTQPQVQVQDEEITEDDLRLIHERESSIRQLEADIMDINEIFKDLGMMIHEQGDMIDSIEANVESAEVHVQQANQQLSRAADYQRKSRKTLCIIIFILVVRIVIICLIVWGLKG

[2] = target: T2, Lysozyme-like 4 (LYZL4) (mouse (endogenous in testis)) (UniProt Q9D925)
T2 sequence: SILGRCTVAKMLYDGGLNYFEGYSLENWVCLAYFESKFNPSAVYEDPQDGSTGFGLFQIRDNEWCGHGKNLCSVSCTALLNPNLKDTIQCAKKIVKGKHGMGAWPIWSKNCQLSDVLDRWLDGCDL

[3] = target: microtubule-associated protein 1B (MAP1B) (mouse (endogenous in testis)) (UniProt P14873)

Measured: binding

B1: insulin inhibitory receptor (inceptor) (receptor, UniProt A2AFS3 36-1009)
chain: FQVTLGTGPELHACKESEYHFEYTACDSTGSRWRVAVPHSPGLCTSLPDPVKGTECSFSCNAGEFLDMKDQSCKPCAEGRYSLGTGIRFDEWDELPHGFASLSANLEVDDSISESTENCTSSKWVPRGDYIASNTDECTATLMYAVNLKQSGTVNFEYYYPDSSIIFEFFVQNDQCQPSADDSRWMKTTEKGWVELNRGNNVLYWRTTAFSVWSKVSKPVLVRNIAITGVAYTSECFPCKPGTYAAKQGSPFCKLCPANYYSNKGETSCHPCDADKYSEKGSSTCKVRPACTDKDYFYTHTACDAQGETQLMYKWAIPKICGEDLEGAVKLPASGVKTRCPPCNPGFFKTDNSTCEPCPYGSYSNGSDCTHCPAGTEPAVGFEYKWWNTLPSNMETTVLSGINFEYKGLTGWEVAGDHIYTAVGASDNDFMILTLVVPGFRPPQSVVADTENKEVARITFVFETICSVNCELYFMVGMNSRTNTPVETWKGTKGKQSYTYTIEENATVSFTWAFQRTTLHETGRKYTNDVAKIYSINVTNVMGGVASYCRPCALEASDLGSSCTSCPAGHYINRDSGTCHLCPSNTILKAHQPYGAQACVPCGPGTKNNKIHSLCYNDCTFSRNTPSRIFNYNFSALAGTVSLAGVPSFTSKGLKYFHHFTLSLCGNQGKKMAVCTDNVTDLRIPDGEAGFSKSVTAYVCQVVIIPSEVMGYKAGVSSQPVSLADRLVGVSTDMTLEGIVSPVELFHPETSGIPDIVFFFRSNDVTQSCSSGRSTTIRLRCNPMKAAPGTLRLPSMCSDGTCDGCNFHFLWESVAACPLCSASDYHTFVSSCVAGIQKTTYMWREPKLCSGGISLPEQRVTICKTIDFWLKVGISAGTCTAILLTVLTCYFWKKNQKLEYKYSKLVMNATLKDCDLPAADSCAIMEGEDVEDDFIFTSKKSLFGKIKSFTSKRTPDGFDSVPLKTSSGGPDMDM
binds: all assays above
